This passage reports binding results from PMC3605578.

By UniProt entry, the sequences of proteins in these tests, tags left out.
UniProt O00560: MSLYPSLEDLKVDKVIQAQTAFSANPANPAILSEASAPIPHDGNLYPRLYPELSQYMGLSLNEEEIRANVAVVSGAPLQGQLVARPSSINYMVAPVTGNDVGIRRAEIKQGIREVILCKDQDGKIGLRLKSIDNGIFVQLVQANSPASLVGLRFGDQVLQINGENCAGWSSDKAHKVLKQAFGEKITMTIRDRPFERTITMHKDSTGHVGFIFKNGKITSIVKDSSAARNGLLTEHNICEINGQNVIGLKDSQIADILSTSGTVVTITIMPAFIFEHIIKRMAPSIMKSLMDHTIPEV

These are yes or no findings as the source states them, for the method shown. For some of these results: In cells and extracts the contact can be indirect. Some entries that bind do so weakly or less than the wild type. For some of these results: Sequences can lack the tags named with a protein.

The target in experiment [1] is T1, wild-type syndecan-4 expressed in syndecan-4-null MEFs (UniProt P31431).
T1 sequence: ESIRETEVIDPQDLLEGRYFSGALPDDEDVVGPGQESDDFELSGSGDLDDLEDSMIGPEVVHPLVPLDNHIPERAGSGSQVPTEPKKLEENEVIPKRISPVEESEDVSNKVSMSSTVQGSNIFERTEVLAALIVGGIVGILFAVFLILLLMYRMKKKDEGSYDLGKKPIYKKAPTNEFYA
As to the kind of experiment: co-IP; coimmunoprecipitation of GFP-syntenin with syndecan-4 from MEFs; 1-3 ug antibody, protein G Sepharose, 1.5 hr at 4°C.

Experiment [2] concerns the target T2, syndecan-4 Y180E expressed in syndecan-4-null MEFs (UniProt P31431).
T2 sequence: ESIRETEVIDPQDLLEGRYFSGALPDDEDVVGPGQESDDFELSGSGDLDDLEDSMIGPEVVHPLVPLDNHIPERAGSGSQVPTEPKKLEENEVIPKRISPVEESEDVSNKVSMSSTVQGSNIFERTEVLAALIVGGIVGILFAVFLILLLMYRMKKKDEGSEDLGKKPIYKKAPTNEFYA
The description is as above.

Experiment [3] concerns the target T3, GST-syndecan-4 cytoplasmic domain, wild type (UniProt P31431).
T3 sequence: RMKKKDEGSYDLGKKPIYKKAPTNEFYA
As to the kind of experiment: pull-down; recombinant GST-Syn4 cytoplasmic domains as bait; syntenin from cell lysate, detected by blot; only the target purified.

Experiment [4] concerns the target T4, GST-syndecan-4 cytoplasmic domain Y180E (UniProt P31431).
T4 sequence: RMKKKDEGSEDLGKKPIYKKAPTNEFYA
The experiment is described as above.

The target of experiment [5] is endogenous syndecan-4 of human fibroblasts (human (endogenous in human fibroblasts)) (UniProt P31431). Briefly: SDS-PAGE or Phos-tag gel and immunoblotting after immunoprecipitation; syndecan-4 immunoprecipitated from cell lysate, resolved under reducing SDS conditions; monomer and dimer bands. A general note: Immunoblotting shows a protein as a band on a membrane.
In experiment [6] the target is syndecan-4 Y180L expressed in syndecan-4-null MEFs (UniProt P31431). Described as above.
Experiment [7] deals with T1, wild-type syndecan-4 expressed in syndecan-4-null MEFs. Described as above.

“GFP-syntenin (from UniProt O00560 1-298)”: the binding entry in experiment [1] and in experiment [2] was “binds” throughout.

As to “syntenin, from cell lysate (from UniProt O00560 1-298)”, the binding result in experiment [3] and in experiment [4] was “binds” each time.

B1: endogenous syndecan-4 of human fibroblasts (receptor, UniProt P31431 19-198)
chain: ESIRETEVIDPQDLLEGRYFSGALPDDEDVVGPGQESDDFELSGSGDLDDLEDSMIGPEVVHPLVPLDNHIPERAGSGSQVPTEPKKLEENEVIPKRISPVEESEDVSNKVSMSSTVQGSNIFERTEVLAALIVGGIVGILFAVFLILLLMYRMKKKDEGSYDLGKKPIYKKAPTNEFYA
B1: the binding entry in experiment [5] is on record as “binds”.

B2: syndecan-4 Y180L expressed in syndecan-4-null MEFs (receptor, UniProt P31431 19-198)
chain: ESIRETEVIDPQDLLEGRYFSGALPDDEDVVGPGQESDDFELSGSGDLDDLEDSMIGPEVVHPLVPLDNHIPERAGSGSQVPTEPKKLEENEVIPKRISPVEESEDVSNKVSMSSTVQGSNIFERTEVLAALIVGGIVGILFAVFLILLLMYRMKKKDEGSLDLGKKPIYKKAPTNEFYA
For B2, the binding entry in experiment [6] is on record as “binds”.

B3: wild-type syndecan-4 expressed in syndecan-4-null MEFs (receptor, UniProt P31431 19-198)
chain: ESIRETEVIDPQDLLEGRYFSGALPDDEDVVGPGQESDDFELSGSGDLDDLEDSMIGPEVVHPLVPLDNHIPERAGSGSQVPTEPKKLEENEVIPKRISPVEESEDVSNKVSMSSTVQGSNIFERTEVLAALIVGGIVGILFAVFLILLLMYRMKKKDEGSYDLGKKPIYKKAPTNEFYA
As to B3, the binding entry in experiment [7] is on record as “binds”.
